Experimental data reported in PubChem BioAssay AID2417 (National Center for Advancing Translational Sciences (NCATS), 2010).
The campaign covered roughly 140,000 compounds. About 4,300 (3.1%) were called active. Inconclusive results, whose numbers are uncertain, are shown with a selection of clear calls.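 The calls were made as follows: active = readout at or below -70, meaning at least 70% loss of cells showing the perinucleolar compartment, a nuclear body marking cancer cells; inconclusive = readout between -30 and a set limit; inactive = the rest.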

test: High Content Assay for Compounds that inhibit the Assembly of the Perinucleolar Compartment; conditions: PC3M PTB-GFP, PNC prevalence imaging, 16 h; at 10 µM; stronger effect = lower value;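 also: plate controls were DMSO wells for no effect and camptothecin positive control wells for full effect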
In short: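 Compounds are pinned in duplicate onto adhered PC3M cells stably expressing GFP-tagged PTB and incubated 16 h at 37 C. Cells are then fixed, nuclei stained with Hoechst, and PNC-positive cells counted.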

Compound | activity change (PNC), negative = inhibition
Cc1cc(NCc2ccco2)n2ncnc2n1 | active: -119%
CC(C)NC(=O)C1CC=CCC1C(=O)O (configuration not stated) | inconclusive: -56.8%
Cc1cc(C(=O)OCC(=O)N2CCN(C(=O)c3ccco3)CC2)c(C)n1-c1ccc(F)cc1 | inconclusive: -40.4%
O=C(CSc1nnc(COc2ccc(Cl)cc2)o1)N1CCN(c2ccccc2)CC1 | inconclusive: -72.3%
O=S(=O)(NCCSc1nc2ccccc2o1)c1ccccc1 | inconclusive: -41.7%
COc1ccc(NC(=O)CCn2nnc(-c3ccc(C)cc3)n2)cc1OC | inconclusive: -53.8%
COCc1nnc(NS(=O)(=O)c2ccc([N+](=O)[O-])cc2)s1 | inconclusive: -42%
Cc1cc(C(=O)NNC(=S)NC(=O)/C=C/c2ccccc2Cl)n[nH]1 | inactive: 33.5%
O=C(Nc1cccc(N=Cc2cc(Br)cc(Br)c2O)c1)c1ccco1 | inconclusive: -55.3%
O=C(c1ccc2ncsc2c1)N1CCN(c2ccc(O)cc2)CC1 | inactive: 15%
CS(=O)(=O)c1nc(-c2cccs2)cc(C(F)(F)F)n1 | inactive: 18.8%
CCOC(=O)CNC(=O)CSc1nc2cccnc2n1Cc1ccccc1 | active: -80.5%
CCCCC1(C)OC(=O)C(=Cc2ccc(N(CC)CC)cc2)C(=O)O1 (configuration not stated) | inactive: 18.8%
CCSc1nnc(NC(=O)C2CCN(S(=O)(=O)c3ccccc3C(F)(F)F)CC2)s1 | inconclusive: -30.8%
CN(C)C(=O)c1ccc(NC(=O)c2cccnc2)cc1 | inactive: 0.643%
CC(C)Cc1cc(C(=O)Nc2cc(Br)ccc2O)no1 | inconclusive: -35.5%
O=C(NCC1CCCO1)C(=O)NCC(c1ccco1)N1CCN(c2ccccc2)CC1 (configuration not stated) | inconclusive: -33.7%
O=C(CNC(=O)c1cccs1)NCC(=O)OCc1ccc(Cl)cc1Cl | inconclusive: -37.9%
CCOc1ccc2c(c1)sc(N)[n+]2Cc1cc(C)cc2cccnc12 | active: -84.6%

Compound | activity change (PNC), negative = inhibition
CC(=O)NC(CC(C)C)C(=O)NC(Cc1ccccc1)C(N)=O (configuration not stated) | inconclusive: -72.3%
CC(=O)N1C(=O)CC(C)N(C(C)=O)c2ccc([N+](=O)[O-])cc21 (configuration not stated) | inconclusive: -38.2%
CCCOc1cccc(/C=N/NC(=O)c2csc(C)c2C)c1 | inconclusive: -38.3%
CSc1ccccc1NC(=O)c1cc(C2CC2)on1 | active: -108%
CCc1cccc2c(C#N)cn(CC(=O)NCc3ccco3)c12 | inconclusive: -36%
CCOc1cc(C(=S)N2CCOCC2)ccc1OS(=O)(=O)c1ccccc1[N+](=O)[O-] | inconclusive: -59.9%
O=C(O)c1cccc(N2C(=O)c3cccnc3C2=O)c1 | active: -100%
Cc1ccc(-n2c(-c3nn(C)cc3Cl)n[nH]c2=S)cc1 | inactive: -0.972%
Cc1ccc(C(=O)COC(=O)c2cccc(N3C(=O)c4c(C)nc5ccccc5c4C3=O)c2)cc1C | inconclusive: -53.9%
Cc1ccccc1NC(=O)CSc1nc(N)c2c3c(sc2n1)CSC(C)(C)C3 | inactive: -1.81%
COc1ccc(/C=c2\s/c(=C/C(=O)c3ccc(C)cc3)[nH]c2=O)c(OC)c1 | inconclusive: -36.4%
Cc1ccnc(NS(=O)(=O)c2ccc(NC(=O)c3ccc(C)o3)cc2)n1 | inconclusive: -37.6%
CN(C)C(=O)c1ccc(NC(=O)c2cncc(Br)c2)cc1 | active: -100%
O=C(CCSCCc1ccccn1)Nc1c(F)c(F)c(F)c(F)c1F | inconclusive: -40.9%
CC1=C([N+](=O)[O-])C(c2ccccc2)C2=C(N1)c1ccccc1C2=O (configuration not stated) | inconclusive: -59.4%
COc1ccc(CC(=O)Nc2cccc(C)n2)cc1OC | active: -80.9%
COc1cccc(NC(=O)CN(c2ccc(C)cc2)S(=O)(=O)c2c(C)nn(C)c2C)c1 | inconclusive: -41.9%
O=C(Nc1c(C(=O)N2CCOCC2)cnn1-c1ccccc1)c1ccccc1 | inconclusive: -51.3%
COc1ccc(N(C(=O)CS(=O)CC(=O)Nc2ccc(F)cc2)C(C(=O)NC2CCCCC2)c2cccs2)cc1 (configuration not stated) | inactive: 19.2%

Compound | activity change (PNC), negative = inhibition
Cc1ccc(NCCc2ccc(C)nc2)cc1 | inconclusive: -74.7%
COc1ccccc1-n1cc(-c2ccc(Cl)cc2)[nH]c1=O | inactive: 39.3%
CCCn1nnc(NC(=O)c2cc(Br)cc(Br)c2OC)n1 | active: -119%
CC1(C)Cc2c(c(N3CCCCC3)[nH]c(=S)c2C#N)CS1 | inactive: 4.68%
COCCCNC(NC(=O)c1ccc(Cl)cc1)C(Cl)(Cl)Cl (configuration not stated) | inconclusive: -61.6%
Cc1ccc(C(=O)NC(Cc2c[nH]c3ccccc23)C(=O)O)o1 (configuration not stated) | inconclusive: -30.8%
Cn1c(=O)c2c(nc(NCCNC(=O)c3ccco3)n2Cc2ccccc2Cl)n(C)c1=O | inconclusive: -32.5%
O=C(Cc1c(F)cccc1Cl)N1CCN(C(=O)c2ccco2)CC1 | inconclusive: -55.7%
COc1cc(N2C(=O)NC3CC2(C)Oc2ccccc23)cc(OC)c1OC (configuration not stated) | inactive: 26.5%
CN(Cc1ccccc1)Cc1nc2c(c(=O)n(C)c(=O)n2C)n1Cc1ccc(F)cc1 | inconclusive: -30.1%
CCCn1nnc(NC(=O)c2ccc(Br)cc2)n1 | inconclusive: -33.4%
Cn1c(-c2ccc(F)cc2)cnc1NCc1ccc(F)cc1 | inactive: 9.89%
CCC(C)NC(=O)C1CCN(S(=O)(=O)c2cccnc2)CC1 (configuration not stated) | inconclusive: -42.5%
COc1ccc(N(Cc2cc3ccccc3[nH]c2=O)S(C)(=O)=O)cc1 | inconclusive: -30.3%
Cc1ccc(-c2noc(CCC(=O)N3CCCC3)n2)cc1 | inconclusive: -36.1%
CCCCn1c(N)c(N(CCC(C)C)C(=O)CSc2nnc3ccccn23)c(=O)[nH]c1=O | inconclusive: -34.6%
O=c1[nH]c(CN2CCN(C/C=C/c3ccccc3)CC2)nc2cc(Cl)ccc12 | inconclusive: -33.5%
O=C(c1ccco1)N1CCN(c2ncnc3scc(-c4cccs4)c23)CC1 | inactive: -17.7%
O=C(CSc1nnc(-c2ccccc2)n1-c1ccc(Cl)cc1)NNC(=S)Nc1ccccc1 | inactive: 18.1%

Copied from the list:
CCCn1nnc(NC(=O)c2cc(Br)cc(Br)c2OC)n1 – activity change (PNC), negative = inhibition: active: -119%
Cc1ccc(-c2noc(CCC(=O)N3CCCC3)n2)cc1 – activity change (PNC), negative = inhibition: inconclusive: -36.1%
